According to patent US8618054B2 (Valorisation-Rechereche Société en Commandite, priority 2004, dated 2013):

Test: general procedure: Fmoc solid-phase peptide synthesis
Conditions: whole synthesis, rp-HPLC, scale of the general procedure 0.1 mmol, dihydrochloride salt

Substance: RY(HyVal)PELA
- crude HPLC purity: ≧90%
